From the supplement of paper PMC12889115 come the findings set out here.

The list shows a part of the results. Values are raw readings; no control value is given beside them.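 Primary screen: polymyxin B was added at a level permeabilizing Salmonella outer membranes while sparing inner membranes. DMSO wells, both with and without polymyxin B, established maximum growth. Plate-to-plate variation meant each plate was ranked on its own, and the lowest-OD600 compounds were selected as hits.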

In this experiment the test system is Salmonella enterica serovar Typhimurium SL1344. Nature of the experiment: bacterial growth OD600 after 18 h with compound and polymyxin B; higher = more bacterial growth (less inhibition). The note with it: 50 µM, Mueller-Hinton broth.

With `Cc1cccc(-n2cc(CN3CCOCC3)c(-c3cccc(F)c3)n2)c1`, the “bacterial growth OD600” value (polymyxin B 1 µg/mL) was found to be 0.496.

As for `Cc1ccc(Oc2ncccc2CNC(=O)c2ccc(CN(C)C)o2)c(F)c1F`, the “bacterial growth OD600” value (polymyxin B 1 µg/mL) is 1.05.

Consider `O=C(Nc1cccc(-n2cccn2)c1)C1CCCN1C(=O)c1ccccn1` (configuration not stated), for which the “bacterial growth OD600” value (polymyxin B 1 µg/mL) came to 0.816.

On to `COc1ccc(C(=O)N2CCC(C(Cc3ccccc3)N(C)C(=O)c3cc(C)nn3C)CC2)cc1F` (configuration not stated), for which the “bacterial growth OD600” value (polymyxin B 0.75 µg/mL) was 0.964.

For `CCC(NCc1c[nH]nc1-c1ccc(C)c(C)c1)c1ccc(F)cc1` (configuration not stated), where the note is “polymyxin B 1 µg/mL”, the “bacterial growth OD600” value amounted to 0.022.

For `O=C(CCn1cncn1)N1CCCC(CCc2ccc(F)cc2F)C1` (configuration not stated), under “polymyxin B 0.75 µg/mL”, the “bacterial growth OD600” value is 0.805.

As to `O=C(CN1Cc2ccccc2OC(c2ccsc2)C1)N1CCC(N2CCSCC2)CC1` (configuration not stated), under “polymyxin B 0.75 µg/mL”, the “bacterial growth OD600” value came out at 0.846.

With `Cc1cnc(SCCN2CCOCC2)nc1C1CCCN(C(=O)/C=C/c2ccc(F)cc2)C1` (configuration not stated), under “polymyxin B 0.75 µg/mL”, the “bacterial growth OD600” value is 0.932.

As to `Cc1cccnc1N1CCC(C2CCN(Cc3cccnc3)CC2)C1` (configuration not stated), the “bacterial growth OD600” value (polymyxin B 0.75 µg/mL) was determined as 0.764.

On to `CSc1nc(C(=O)NCc2nc(-c3cccc(NC(=O)C4CCCN(C)C4)c3)oc2C)cs1` (configuration not stated), for which, under “polymyxin B 0.75 µg/mL”, the “bacterial growth OD600” value was found to be 0.739.

Regarding `COc1ccc(C(=O)NC2CC2)c(OC2CCN(CC(C)c3ccccc3)CC2)c1` (configuration not stated), the “bacterial growth OD600” value (polymyxin B 1 µg/mL) turned out to be 1.28.

`Cc1cc(C)n(Cc2cc(C(=O)N(C)CC3Cc4ccccc4O3)n[nH]2)n1` (configuration not stated): where the note is “polymyxin B 1 µg/mL”, the “bacterial growth OD600” value turned out to be 0.935.

Turning to `Cc1nonc1CN(C)C(=O)CC1(c2ccccc2)CC(=O)N(CCCOc2cccnc2)C1=O` (configuration not stated), the “bacterial growth OD600” value (polymyxin B 0.75 µg/mL) was 0.83.

Regarding `COc1ccc(CN2CCN(Cc3ccc4c(c3)OCCO4)CC2CCO)cc1C` (configuration not stated), for the setting “polymyxin B 1 µg/mL”, the “bacterial growth OD600” value was 1.02.

As for `COc1ccccc1C1CCCN1C(=O)C1(N(C)C)Cc2ccccc2C1` (configuration not stated), the “bacterial growth OD600” value (polymyxin B 1 µg/mL) came to 0.808.

On to `Cc1cnc(C)c(N2CCN(Cc3nc(-c4ccccc4)no3)CC2)n1`, for which, under “polymyxin B 1 µg/mL”, the “bacterial growth OD600” value amounted to 0.894.

Regarding `COc1cccc(CCC2CCCN(C(=O)c3csc(C(C)=O)c3)C2)c1` (configuration not stated), under “polymyxin B 0.75 µg/mL”, the “bacterial growth OD600” value came to 0.101.

On to `COc1ccc(CCN2CC(NC(=O)c3ccsc3)CC2=O)cc1` (configuration not stated), for which the “bacterial growth OD600” value (polymyxin B 1 µg/mL) was found to be 0.887.

As to `O=C(c1csc(-c2cccs2)n1)N1CCCC(CO)(Cc2cccc(Cl)c2)C1` (configuration not stated), the “bacterial growth OD600” value (polymyxin B 1 µg/mL) was -0.001.

As to `c1ccc(COC2CCCN(Cc3nc(Cc4ccccc4)no3)C2)cc1` (configuration not stated), the “bacterial growth OD600” value (polymyxin B 1 µg/mL) turned out to be 0.922.

On to `COc1cccc(NC(=O)CCC2CCN(C(=O)Nc3ccccc3SC)CC2)c1`, for which, where the note is “polymyxin B 1 µg/mL”, the “bacterial growth OD600” value is 0.835.

As for `Cc1ccc2[nH]c(C(=O)N3CC[C@@H](N4CCC(O)CC4)[C@H](O)C3)c(C)c2c1`, where the note is “polymyxin B 1 µg/mL”, the “bacterial growth OD600” value was 0.935.

As for `C=CCCC(=O)N1CCCC(CCc2ccc(F)c(F)c2)C1` (configuration not stated), the “bacterial growth OD600” value (polymyxin B 0.75 µg/mL) stood at 0.007.

As to `COc1ccc2c(c1)OC(C)CN(CCC(=O)NCCSc1nncn1C)C2` (configuration not stated), the “bacterial growth OD600” value (polymyxin B 0.75 µg/mL) turned out to be 0.853.

With `CCOc1ccc2nc(N3CCCC(C(=O)NCCc4cnccn4)C3)nc(C)c2c1` (configuration not stated), the “bacterial growth OD600” value (polymyxin B 0.75 µg/mL) amounted to 0.783.

Consider `CCn1nc(C)c(CNC(=O)c2ccc(OC3CCN(C(=O)COC)CC3)cc2)c1C`, for which the “bacterial growth OD600” value (polymyxin B 1 µg/mL) amounted to 0.985.

On to `CCC1CN(Cc2ccc(O)c(Cl)c2)Cc2cc(OC)ccc2O1` (configuration not stated), for which the “bacterial growth OD600” value (polymyxin B 0.75 µg/mL) was 0.009.

Turning to `CCn1cc(CN2C[C@H]3OC(=O)N(CCCc4ccc(F)cc4)[C@H]3C2)cn1`, the “bacterial growth OD600” value (polymyxin B 0.75 µg/mL) turned out to be 0.816.

Turning to `O=C(c1ccc(-c2ccccc2)cc1)N1CCC2(CC1)CC2C(=O)N1CCN(c2ccccn2)CC1` (configuration not stated), under “polymyxin B 0.75 µg/mL”, the “bacterial growth OD600” value was 0.866.

In the case of `CC(=O)NCCC(=O)N1CCC(C2CCN(Cc3ccc(Cl)cc3)C2)CC1` (configuration not stated), the “bacterial growth OD600” value (polymyxin B 0.75 µg/mL) stood at 0.993.

Take `C=CCCC(=O)N1CCC2(CCCN(Cc3cccc(F)c3F)C2)C1` (configuration not stated): where the note is “polymyxin B 1 µg/mL”, the “bacterial growth OD600” value came out at 1.

For `CCCS(=O)(=O)NCc1cccnc1Oc1ccc(C)nc1`, where the note is “polymyxin B 1 µg/mL”, the “bacterial growth OD600” value was 0.921.
